Results are given in words; binding and its absence hold for the method and conditions named. Binding can be weak; no strength is given.
Assays:
[1] = molecular target: human B7-H3, 2Ig form (human); assay: BIACORE, mAb titrated over immobilized antigen
[2] = molecular target: cynomolgus monkey B7-H3 (cynomolgus monkey); assay: summary of Example 1
[3] = molecular target: cynomolgus monkey B7-H3 (cynomolgus monkey); assay: Cynomolgus B7-H3 binding (grade, Table 21)
[4] = molecular target: cynomolgus monkey B7-H3 (cynomolgus monkey); assay: IHC on cynomolgus tissues
[5] = molecular target: cynomolgus monkey B7-H3 (cynomolgus monkey); assay: Cyno cross-reactivity
[6] = molecular target: human B7-H3, 2Ig form (human); assay: Specificity (Table 21)
[7] = molecular target: cynomolgus monkey B7-H3 (cynomolgus monkey); assay: summary of attributes
[8] = molecular target: human B7-H3, 2Ig form (human); assay: summary of attributes
[9] = molecular target: human B7-H3, 2Ig form (human); assay: 2Ig/4Ig specificity
[10] = molecular target: cynomolgus monkey B7-H3 (cynomolgus monkey); assay: summary of activities (Table 6)
[11] = molecular target: cynomolgus monkey B7-H3 (cynomolgus monkey); assay: Cyno B7-H3 binding (grade)

Measured: binding

B1: BRCA69D (antibody, IgG1, V domains shown)
VH: QVQLQQSGAELARPGASVKLSCKASGYTFTSYWMQWVKQRPGQGLEWIGTIYPGDGDTRYTQKFKGKATLTADKSSSTAYMQLSSLASEDSAVYYCARRGIPRLWYFDVWGAGTTVTVSS
VL: DIQMTQTTSSLSASLGDRVTISCRASQDISNYLNWYQQKPDGTVKLLIYYTSRLHSGVPSRFSGSGSGTDYSLTIDNLEQEDIATYFCQQGNTLPPTFGGGTKLEIK
notes: also called BRCA69A (probable misprint)
binds: all assays above

B2: PRCA157 (antibody, IgG1, V domains shown)
VH: EVQQVESGGDLVKPGGSLKLSCAASGFTFSSYGMSWVRQTPDKRLEWVATINSGGSNTYYPDSLKGRFTISRDNAKNTLYLQMRSLKSEDTAMYYCARHDGGAMDYWGQGTSVTVSS
VL: DIQMTQSPASLSVSVGETVTITCRASESIYSYLAWYQQKQGKSPQLLVYNTKTLPEGVPSRFSGSGSGTQFSLKINSLQPEDFGRYYCQHHYGTPPWTFGGGTNLEIK
not listed: [1]
binds: all other assays above

Reference: US20120294796A1 (MacroGenics, published 2012)
